This is an account of results in patent US11970551 (dated 2024).

The star is where a group is joined. Trt = c1ccc(C(c2ccccc2)(c2ccccc2)*)cc1; Fmoc = O=C(OCC1c2ccccc2-c2ccccc21)*; OtBu = CC(C)(C)O*; For = O=C* Where only a bound is given, the exact number is not on record here.

A short description of data set [1]: general procedure: solution-phase peptide synthesis; EDC.HCl/HOBt.H2O/DIPEA; DCC/HOAt.
The nature of data set [2]: solution-phase peptide synthesis; EDC.HCl/HOBt.H2O/DIPEA; DCC/HOAt. Particulars: late stage modification step, global deprotection of SEQ ID NO 15.

As to “Boc-Met-Asp(OtBu)-Gly-Cys(ψ^Me,MePro)-Glu(OtBu)-Leu-OtBu”, in data set [1] (coupling step), the “crude LC-MS purity” value is 84% (LCMS). In data set [1] (coupling step, based on a purity of 84%), the step yield is recorded as 76% yield.
On to “Cbz-Gly-Cys(ψMe,MePro)-Glu(OtBu)-Leu-OtBu”, for which, in data set [1] (coupling step), the “crude LC-MS purity” value turned out to be 76 area % and the “crude purity (method not given)” value was 70%. The substance further gave a step yield in data set [1] (coupling step, based on 70% purity) of 58% yield.
Regarding Fmoc-MD(OtBu)GC(Trt)E(OtBu)L-OtBu, in data set [1] (purification step), the “final purity (method not given)” value stood at 95.4% and the step yield amounted to 78%.
For For-MD(OtBu)GC(Trt)E(OtBu)L-OtBu, in data set [1] (late stage modification step), the “purity (crude or final not stated)” value was “between 67.5-77.2%” and the step yield is listed as 75-83%.
As for For-MDGCEL-OH, the “final purity (method not given)” value in data set [1] (late stage modification step) is on record as 97.6%; in data set [1] (purification step, run 1), “app 97%”; in data set [1] (purification step, run 2), “app. 97%”. In addition, the step yield in data set [1] (late stage modification step) is 97%; in data set [1] (purification step) it was greater than 90%; in data set [2], 97%.
“H-Gly-Cys(ψ^Me,MePro)-Glu(OtBu)-Leu-OtBu”: in data set [1] (late stage modification step), the “crude LC-MS purity” value came to 80% purity and the step yield was 79% yield.
